Laboratory results taken from patent publication US12295967B2, “Pharmaceutical composition for prevention or treatment of flavivirus infection” (priority 2018, dated 2025).
pIC50: −log10 of the molar value. Structures can show the parent of a compound that is named as a salt.

Biological target: T1, dengue virus RdRp (Dengue virus type 2, UniProt P29990)
T1 construct: dengue virus RdRp enzyme activity
Test: biochemical
Conditions: dengue virus RdRp enzyme activity; read-out: IC50, inhibitory target enzyme RdRp

- pIC50: 4.55
SMILES: CSc1ccc2c(c1)N(CCC1CCCCN1C)c1ccccc1S2 (stereo not shown) [Thioridazine HCl]
